Results: publication PMC11904980
Results are given in words; binding and its absence hold for the method and conditions named. Binding seen in cells or lysates may run through a third protein. Some results given as binding are weak or reduced against the parent protein; the word gives no strength.

Sequences of proteins named here, by UniProt entry; tags and fusion partners are left off. A change or cut given only in a name is not applied to a line headed by its entry.
UniProt P25963: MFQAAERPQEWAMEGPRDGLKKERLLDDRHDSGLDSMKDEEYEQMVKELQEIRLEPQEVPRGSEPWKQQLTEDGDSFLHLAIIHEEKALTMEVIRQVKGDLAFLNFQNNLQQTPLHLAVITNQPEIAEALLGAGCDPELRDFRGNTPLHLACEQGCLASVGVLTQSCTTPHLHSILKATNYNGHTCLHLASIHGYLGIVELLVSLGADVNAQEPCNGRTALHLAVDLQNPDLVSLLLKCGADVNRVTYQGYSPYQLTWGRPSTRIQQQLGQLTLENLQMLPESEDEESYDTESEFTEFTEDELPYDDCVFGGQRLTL
UniProt Q7Z6E9: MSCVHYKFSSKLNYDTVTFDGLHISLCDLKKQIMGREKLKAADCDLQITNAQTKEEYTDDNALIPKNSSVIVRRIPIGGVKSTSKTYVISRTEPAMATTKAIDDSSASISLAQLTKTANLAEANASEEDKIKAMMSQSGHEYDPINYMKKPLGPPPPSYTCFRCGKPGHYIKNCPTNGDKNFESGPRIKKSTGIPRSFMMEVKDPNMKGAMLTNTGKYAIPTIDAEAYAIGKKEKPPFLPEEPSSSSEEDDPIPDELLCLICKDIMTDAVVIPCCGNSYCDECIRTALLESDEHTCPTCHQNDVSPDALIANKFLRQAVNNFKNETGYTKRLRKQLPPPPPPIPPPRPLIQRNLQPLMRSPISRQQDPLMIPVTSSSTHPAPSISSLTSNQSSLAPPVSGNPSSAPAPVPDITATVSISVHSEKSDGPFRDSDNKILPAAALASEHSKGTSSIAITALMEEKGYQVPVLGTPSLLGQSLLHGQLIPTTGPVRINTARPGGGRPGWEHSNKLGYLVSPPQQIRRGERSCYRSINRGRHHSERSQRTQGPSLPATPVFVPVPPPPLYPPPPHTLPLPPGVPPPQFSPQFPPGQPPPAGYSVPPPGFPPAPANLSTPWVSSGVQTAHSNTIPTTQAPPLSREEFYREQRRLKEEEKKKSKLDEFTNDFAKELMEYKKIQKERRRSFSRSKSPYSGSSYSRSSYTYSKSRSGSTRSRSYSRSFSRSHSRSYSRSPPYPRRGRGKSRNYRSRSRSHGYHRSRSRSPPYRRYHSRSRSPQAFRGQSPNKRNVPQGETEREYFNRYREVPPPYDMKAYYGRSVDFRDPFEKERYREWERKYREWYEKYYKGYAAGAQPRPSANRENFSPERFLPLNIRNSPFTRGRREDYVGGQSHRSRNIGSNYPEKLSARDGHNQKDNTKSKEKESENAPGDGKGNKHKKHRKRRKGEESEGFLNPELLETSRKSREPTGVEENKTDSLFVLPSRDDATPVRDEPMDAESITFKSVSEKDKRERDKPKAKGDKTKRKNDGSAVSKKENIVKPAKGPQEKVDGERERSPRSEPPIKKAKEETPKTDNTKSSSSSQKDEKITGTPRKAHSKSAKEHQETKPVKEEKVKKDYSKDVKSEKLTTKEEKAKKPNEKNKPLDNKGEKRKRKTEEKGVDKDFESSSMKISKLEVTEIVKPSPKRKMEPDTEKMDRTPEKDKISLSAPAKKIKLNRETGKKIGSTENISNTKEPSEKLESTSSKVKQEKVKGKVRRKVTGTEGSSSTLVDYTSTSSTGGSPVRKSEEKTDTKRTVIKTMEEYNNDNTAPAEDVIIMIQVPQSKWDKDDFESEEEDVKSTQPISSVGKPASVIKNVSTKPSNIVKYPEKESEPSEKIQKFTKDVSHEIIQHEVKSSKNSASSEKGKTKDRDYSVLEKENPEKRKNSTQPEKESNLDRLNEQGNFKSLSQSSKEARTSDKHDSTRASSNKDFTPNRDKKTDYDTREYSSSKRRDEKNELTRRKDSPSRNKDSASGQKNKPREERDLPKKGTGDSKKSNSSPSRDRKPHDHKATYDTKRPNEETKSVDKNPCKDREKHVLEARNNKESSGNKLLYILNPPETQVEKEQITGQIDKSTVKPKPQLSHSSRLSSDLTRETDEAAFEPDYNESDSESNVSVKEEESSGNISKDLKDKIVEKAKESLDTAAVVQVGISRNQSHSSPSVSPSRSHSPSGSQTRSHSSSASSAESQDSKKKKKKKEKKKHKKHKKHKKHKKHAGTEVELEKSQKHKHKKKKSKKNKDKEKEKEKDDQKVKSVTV
UniProt O95071: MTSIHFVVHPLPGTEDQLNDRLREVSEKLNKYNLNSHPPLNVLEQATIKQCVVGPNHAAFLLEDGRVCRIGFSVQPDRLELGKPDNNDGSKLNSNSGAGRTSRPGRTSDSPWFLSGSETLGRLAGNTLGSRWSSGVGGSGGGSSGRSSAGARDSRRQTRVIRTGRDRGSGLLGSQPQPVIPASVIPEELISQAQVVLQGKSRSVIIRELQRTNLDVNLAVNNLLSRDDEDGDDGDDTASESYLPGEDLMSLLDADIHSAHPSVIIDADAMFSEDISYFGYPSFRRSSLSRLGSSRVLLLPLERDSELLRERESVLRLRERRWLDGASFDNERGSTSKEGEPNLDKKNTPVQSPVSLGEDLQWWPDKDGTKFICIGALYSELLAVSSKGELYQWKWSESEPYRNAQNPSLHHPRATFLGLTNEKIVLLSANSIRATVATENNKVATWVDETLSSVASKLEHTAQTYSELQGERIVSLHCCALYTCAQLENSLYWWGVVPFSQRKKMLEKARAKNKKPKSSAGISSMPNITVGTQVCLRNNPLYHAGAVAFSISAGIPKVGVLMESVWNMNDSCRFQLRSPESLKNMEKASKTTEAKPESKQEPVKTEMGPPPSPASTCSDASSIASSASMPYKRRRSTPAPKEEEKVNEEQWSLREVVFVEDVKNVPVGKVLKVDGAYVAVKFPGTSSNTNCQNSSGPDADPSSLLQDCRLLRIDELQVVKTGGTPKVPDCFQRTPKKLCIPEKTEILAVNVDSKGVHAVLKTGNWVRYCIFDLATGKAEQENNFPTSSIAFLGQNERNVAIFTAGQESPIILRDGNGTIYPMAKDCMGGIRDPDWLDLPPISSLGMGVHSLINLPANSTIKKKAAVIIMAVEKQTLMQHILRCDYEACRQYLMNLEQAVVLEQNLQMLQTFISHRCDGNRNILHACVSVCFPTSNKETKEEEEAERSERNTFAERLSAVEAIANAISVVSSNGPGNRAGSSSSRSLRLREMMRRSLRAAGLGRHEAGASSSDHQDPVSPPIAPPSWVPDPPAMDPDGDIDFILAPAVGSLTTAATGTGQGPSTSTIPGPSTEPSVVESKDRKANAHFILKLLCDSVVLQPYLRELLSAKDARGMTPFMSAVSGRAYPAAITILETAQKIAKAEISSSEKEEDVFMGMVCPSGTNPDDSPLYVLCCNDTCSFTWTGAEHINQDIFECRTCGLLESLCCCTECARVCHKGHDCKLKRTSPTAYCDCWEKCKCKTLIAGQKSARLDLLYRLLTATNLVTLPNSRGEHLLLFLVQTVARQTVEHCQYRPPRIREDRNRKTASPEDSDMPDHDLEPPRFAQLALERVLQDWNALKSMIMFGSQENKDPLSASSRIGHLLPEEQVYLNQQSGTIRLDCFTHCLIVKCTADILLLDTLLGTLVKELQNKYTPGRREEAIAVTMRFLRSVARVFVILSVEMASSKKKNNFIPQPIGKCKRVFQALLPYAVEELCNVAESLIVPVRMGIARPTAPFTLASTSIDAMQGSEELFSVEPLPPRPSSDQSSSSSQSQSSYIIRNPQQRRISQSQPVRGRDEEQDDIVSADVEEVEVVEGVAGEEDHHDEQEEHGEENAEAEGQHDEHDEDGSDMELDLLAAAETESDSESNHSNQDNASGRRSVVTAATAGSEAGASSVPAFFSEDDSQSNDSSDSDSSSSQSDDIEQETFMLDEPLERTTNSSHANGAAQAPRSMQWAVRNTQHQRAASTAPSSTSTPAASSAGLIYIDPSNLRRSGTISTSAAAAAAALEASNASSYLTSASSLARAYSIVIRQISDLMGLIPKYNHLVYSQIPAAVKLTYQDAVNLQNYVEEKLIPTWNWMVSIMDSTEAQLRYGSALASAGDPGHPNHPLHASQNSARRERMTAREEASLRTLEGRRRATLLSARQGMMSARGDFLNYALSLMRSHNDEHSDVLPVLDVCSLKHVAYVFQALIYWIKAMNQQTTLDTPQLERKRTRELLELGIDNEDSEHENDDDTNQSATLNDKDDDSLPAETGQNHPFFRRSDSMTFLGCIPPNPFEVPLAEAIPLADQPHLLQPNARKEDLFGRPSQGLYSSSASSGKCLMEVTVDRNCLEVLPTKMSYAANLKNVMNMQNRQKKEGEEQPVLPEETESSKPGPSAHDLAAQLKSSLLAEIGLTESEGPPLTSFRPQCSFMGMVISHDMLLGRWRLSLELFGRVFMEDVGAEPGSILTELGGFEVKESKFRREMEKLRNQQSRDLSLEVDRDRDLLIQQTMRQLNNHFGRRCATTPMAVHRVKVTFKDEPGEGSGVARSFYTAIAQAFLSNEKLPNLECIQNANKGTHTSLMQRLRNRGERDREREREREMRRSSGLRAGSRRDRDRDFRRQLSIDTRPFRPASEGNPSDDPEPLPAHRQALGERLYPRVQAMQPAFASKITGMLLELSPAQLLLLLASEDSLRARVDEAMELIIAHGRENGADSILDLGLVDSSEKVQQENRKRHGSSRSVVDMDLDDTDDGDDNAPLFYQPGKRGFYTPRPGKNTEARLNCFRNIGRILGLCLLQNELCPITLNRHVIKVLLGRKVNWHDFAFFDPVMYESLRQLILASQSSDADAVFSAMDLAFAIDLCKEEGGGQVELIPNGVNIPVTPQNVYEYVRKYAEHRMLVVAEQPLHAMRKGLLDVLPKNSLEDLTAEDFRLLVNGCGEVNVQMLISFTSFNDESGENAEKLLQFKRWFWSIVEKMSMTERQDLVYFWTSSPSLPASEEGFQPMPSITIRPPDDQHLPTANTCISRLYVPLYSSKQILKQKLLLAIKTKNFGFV

Columns and labels:
His‐tagged IκBα [1] = target: His‐tagged IκBα (UniProt P25963); experiment: co-IP; 293T cells transfected with tagged vectors (His-IκBα or its lysine mutants, Myc-RBBP6, Flag circPCSK6-167aa); antibody (e.g. anti-Flag or anti-Myc) overnight at 4 °C, protein A/G magnetic beads, western blot (Figure 6F, I, L-O)
IκBα‐K22R mutant = IκBα‐K22R mutant (UniProt P25963); experiment: as above
His‐tagged IκBα [2] = target: His‐tagged IκBα (UniProt P25963); experiment: pull-down; His-IκBα from transfected 293T cells held on Ni-NTA beads, washed with 20 mM imidazole; lysates of 293T cells expressing Flag circPCSK6-167aa or Myc-RBBP6 incubated 2 h; eluted with 250 mM imidazole; western blot; only the target purified
[3] = target: IκBα in ICC cells (human (endogenous in ICC cell lines)) (UniProt P25963); experiment: co-IP; ICC cell lysate, pre-cleared, antibody overnight at 4 °C, protein A/G magnetic beads, three washes with PBS, western blot (Figure 5F); which protein was precipitated is not told

Row | Substance | binding (His‐tagged IκBα [1]) | binding (IκBα‐K22R mutant) | binding (His‐tagged IκBα [2]) | binding [3]
1 | Myc‐tagged RBBP6 (from UniProt Q7Z6E9 1-1792) | binds | binds | binds | –
2 | RBBP6 (E3 ligase) in ICC cells (from UniProt Q7Z6E9 1-1792) | – | – | – | binds
3 | UBR5 (E3 ligase) in ICC cells (from UniProt O95071 1-2799) | – | – | – | binds weakly
